Measurements published in publication PMC3431237.

Biological target: T1, PbrR (Cupriavidus metallidurans CH34 (plasmid pMOL30)) (UniProt Q58AJ5)
T1 sequence (looked up): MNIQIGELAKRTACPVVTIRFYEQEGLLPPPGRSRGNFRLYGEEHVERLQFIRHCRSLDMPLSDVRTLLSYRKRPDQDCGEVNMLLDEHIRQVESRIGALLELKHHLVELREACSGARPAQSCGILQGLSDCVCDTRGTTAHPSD
Assay: EMSA
Conditions: Pb(II), concentration not in material; recombinant protein; residues 1-145; protein details: thioredoxin-S tag removed with enterokinase; label: 32P; probe letters rebuilt from the primers and the genome

“GCGAATGGTCACCACCGGGCATGCGGTGCGCTTGGCAAGCTCGCCGATCTGGATATTCATGGCGTCGGATGGGAGATGTCTTGACTCTATAGTAACTAGAGGGTGTTAAATCGGCAACGCGAGATGAATACACACAAGGGGTTGCCATGAGCGAATGTGGCTCGAAGGGATGTGGCTGCGCTTCCGTTGCGACGCGCAACCCAGAACCGAGCACGGTTGGCGCGGGGCTGAAGCAGGCGCGCTACCGAATCGAAAACATGGACTGTCCGACCGAAGAGGCGCTGATTCGCGACAAGC (double strand) [PpbrA 296 bp PCR product]”: binds more weakly.

The exact form of at least one protein or probe is not confirmed. The comparison behind a weaker result is the experiment's own reference, which may not be listed here. At least one verdict was read from the data and is not stated in words by the source. Where a protein sequence is shown, tags need not be part of it.
